From patent US7592329B2, “Crystalline complexes of fluticasone-2-furoate” (Glaxo Group Limited, priority 2003, dated 2009)
Some of these results come from one statement about several compounds together.

Test: Pharmacokinetics after intra-tracheal dry powder dosing in the pig
Assay type: in vivo
Conditions: anaesthetised pigs, 1 mg intra-tracheal dry powder
Protocol: Serial blood samples were taken for up to 8 h following dosing.

Row | Structure (SMILES) | time of maximum plasma concentrations after dosing [min]
1 | CCC(=O)O[C@]1(C(=O)SCF)[C@H](C)C[C@H]2[C@@H]3C[C@H](F)C4=CC(=O)C=C[C@]4(C)[C@@]3(F)[C@@H](O)C[C@@]21C [Fluticasone propionate, 6α,9α-Difluoro-17α-(1-oxopropoxy)-11β-hydroxy-16α-methyl-3-oxo-androsta-1,4-diene-17β-carbothioic acid S-fluoromethyl ester, reference compound] | ≤ 15
2 | C[C@@H]1CC2C3C[C@H](F)C4=CC(=O)C=C[C@]4(C)[C@@]3(F)[C@@H](O)C[C@]2(C)[C@@]1(OC(=O)c1ccco1)C(=O)SCF (stereo partly drawn) [Compound of Formula (I), 6α,9α-Difluoro-17α-[(2-furanylcarbonyl)oxy]-11β-hydroxy-16α-methyl-3-oxo-androsta-1,4-diene-17β-carbothioic acid S-fluoromethyl ester] | ≤ 15
